PubChem BioAssay AID1259405 | NCATS – 2018
The deposit covers about 50,000 reagents; shown is a part drawn at random. About 4,000 of all reagents (8%) count as active. 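Mouse siRNA library applied to hamster cells; one well for each siRNA.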 Unmarked entries are inactive.

Aim: 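Mouse-designed siRNAs used to find CHO productivity engineering targets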 (primary screen)
System: Chinese hamster CHO-K1 ovary cells with stable secreted eGFP expression
Reagents: single siRNA against mouse genes, 0.8 pmol siRNA per well (2 µl of 400 nM stock)
Duration: 3 days
Detection: 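Per-well intracellular GFP measured by laser scanning cytometry, plus viability from ATP luminescence, each relative to plate median of non-targeting control wells, in %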
Scale: GFP, % of control: higher = more GFP per well, higher productivity; viability (ATP), % of control: higher = more viable cells (more ATP)
Rule for the call: 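a knock-down is called active if GFP reaches 120% or more of non-targeting control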

| gene symbol | PubChem SID | GFP, % of control | viability (ATP), % of control |
| --- | --- | --- | --- |
| Cd14 | SID363544333 | 104 | 87.3 |
| Cd14 | SID363550661 | 59.7 | 57.3 |
| Cd14 | SID363557210 | 78.9 | 61.7 |
| Grid2 | SID363574347 | 47.1 | 50.4 |
| Grid2 | SID363575403 | 67.8 | 64.7 |
| Grid2 | SID363579979 | 60.3 | 50.1 |
| Slc37a1 | SID363574618 | 105 | 96.5 |
| Slc37a1 | SID363575674 | 48.2 | 42.4 |
| Slc37a1 | SID363580250 | 59.9 | 67.2 |
| Cdh5 | SID363572983 | 124 (active) | 79.5 |
| Cdh5 | SID363577559 | 26.3 | 26.9 |
| Cdh5 | SID363581079 | 80.8 | 90.3 |
| Zfp457 | SID363540975 | 54 | 57.9 |
| Zfp457 | SID363555602 | 65.7 | 81.4 |
| Zfp457 | SID363565891 | 98.3 | 72.5 |
| Slc16a6 | SID363574686 | 101 | 105 |
| Slc16a6 | SID363575742 | 112 | 117 |
| Slc16a6 | SID363580318 | 114 | 46.3 |
| Prxl2c | SID363540822 | 96.6 | 117 |
| Prxl2c | SID363543273 | 84 | 88.2 |
| Prxl2c | SID363552766 | 22.3 | 25 |
| Arhgap33os | SID363539865 | 59.7 | 65.1 |
| Arhgap33os | SID363561166 | 95.2 | 67.4 |
| Arhgap33os | SID363564202 | 33 | 61 |
| Scn3a | SID363574729 | 72.8 | 70.1 |
| Scn3a | SID363575785 | 85.5 | 50.6 |
| Scn3a | SID363580361 | 95.2 | 85.1 |
| Gramd4 | SID363546925 | 97.4 | 86.9 |
| Gramd4 | SID363549737 | 55.8 | 79 |
| Gramd4 | SID363587791 | 140 (active) | 114 |
| Krt12 | SID363572278 | 159 (active) | 73.5 |
| Krt12 | SID363574038 | 98.3 | 100 |
| Mtm1 | SID363575114 | 92.5 | 87.1 |
| Mtm1 | SID363580746 | 93 | 59.6 |
| Mtm1 | SID363582858 | 95.5 | 92 |
| Dnal4 | SID363572344 | 109 | 63.1 |
| Dnal4 | SID363574104 | 66 | 90.4 |
| Rab3gap1 | SID363542386 | 50.8 | 49.6 |
| Rab3gap1 | SID363551877 | 81.8 | 75.6 |
| Rab3gap1 | SID363559482 | 119 | 106 |
| Nrros | SID363544252 | 67 | 50.1 |
| Nrros | SID363550580 | 108 | 102 |
| Nrros | SID363557129 | 54.9 | 60.3 |
| Srst | SID363556246 | 69.8 | 86 |
| Srst | SID363586696 | 93.8 | 125 |
| Srst | SID363588804 | 47.1 | 42.6 |
| Aicda | SID363569834 | 108 | 95.3 |
| Aicda | SID363576874 | 103 | 80 |
| Aicda | SID363578282 | 110 | 101 |
| Cipc | SID363543667 | 61.8 | 60.7 |
| Cipc | SID363553160 | 5.84 | 44.5 |
| Cipc | SID363559008 | 98.3 | 107 |
| Or4b12 | SID363554113 | 76.6 | 86 |
| Or4b12 | SID363567560 | 87.4 | 66.7 |
| Or4b12 | SID363584917 | 67.9 | 106 |
| Ift43 | SID363540656 | 117 | 80.8 |
| Ift43 | SID363543107 | 102 | 71.5 |
| Ift43 | SID363552600 | 109 | 54.8 |
| Chst1 | SID363570408 | 113 | 70 |
| Chst1 | SID363579208 | 107 | 135 |
| Chst1 | SID363583080 | 83.8 | 104 |
| Hexim1 | SID363550203 | 78.7 | 96.6 |
| Hexim1 | SID363564712 | 106 | 43.2 |
| Hexim1 | SID363588257 | 148 (active) | 107 |
| Gemin8 | SID363546958 | 51.8 | 35 |
| Gemin8 | SID363549770 | 69.5 | 69.6 |
| Gemin8 | SID363587824 | 117 | 146 |
| Slc27a3 | SID363572490 | 39 | 80 |
| Slc27a3 | SID363577770 | 58.5 | 55.2 |
| Slc27a3 | SID363581994 | 89.7 | 121 |
| Spta1 | SID363556430 | 95.5 | 101 |
| Spta1 | SID363586880 | 104 | 116 |
| Spta1 | SID363588988 | 89 | 110 |
| Vmn1r208 | SID363556755 | 80.7 | 61.9 |
| Vmn1r208 | SID363563659 | 65.1 | 69.2 |
| Vmn1r208 | SID363587205 | 102 | 93.6 |
| Glcci1 | SID363540155 | 35.3 | 81.6 |
| Glcci1 | SID363561456 | 61.6 | 94.3 |
| Glcci1 | SID363564492 | 129 (active) | 86.5 |
| Atp2b2 | SID363545472 | 38.2 | 70.8 |
| Atp2b2 | SID363548985 | 56.9 | 69.9 |
| Atp2b2 | SID363562791 | 36.5 | 52.2 |
| Wasl | SID363541346 | 65.9 | 65.7 |
| Wasl | SID363555973 | 70.9 | 69.7 |
| Wasl | SID363566262 | 74.8 | 70.6 |

A run of entries of the results above:
| gene symbol | PubChem SID | GFP, % of control | viability (ATP), % of control |
| --- | --- | --- | --- |
| Cipc | SID363559008 | 98.3 | 107 |
| Or4b12 | SID363554113 | 76.6 | 86 |
| Or4b12 | SID363567560 | 87.4 | 66.7 |
| Or4b12 | SID363584917 | 67.9 | 106 |
| Ift43 | SID363540656 | 117 | 80.8 |
| Ift43 | SID363543107 | 102 | 71.5 |
| Ift43 | SID363552600 | 109 | 54.8 |
| Chst1 | SID363570408 | 113 | 70 |
| Chst1 | SID363579208 | 107 | 135 |
| Chst1 | SID363583080 | 83.8 | 104 |
| Hexim1 | SID363550203 | 78.7 | 96.6 |
| Hexim1 | SID363564712 | 106 | 43.2 |
| Hexim1 | SID363588257 | 148 (active) | 107 |
